Assay results as given in doi:10.1101/2020.04.20.050328.
These are yes or no findings as the source states them, for the method shown. Binding seen in cells or lysates may run through a third protein. Some results given as binding are weak or reduced against the parent protein; the word gives no strength.

The chains behind the UniProt entries cited, without tags or fusion partners.
UniProt Q9Y230: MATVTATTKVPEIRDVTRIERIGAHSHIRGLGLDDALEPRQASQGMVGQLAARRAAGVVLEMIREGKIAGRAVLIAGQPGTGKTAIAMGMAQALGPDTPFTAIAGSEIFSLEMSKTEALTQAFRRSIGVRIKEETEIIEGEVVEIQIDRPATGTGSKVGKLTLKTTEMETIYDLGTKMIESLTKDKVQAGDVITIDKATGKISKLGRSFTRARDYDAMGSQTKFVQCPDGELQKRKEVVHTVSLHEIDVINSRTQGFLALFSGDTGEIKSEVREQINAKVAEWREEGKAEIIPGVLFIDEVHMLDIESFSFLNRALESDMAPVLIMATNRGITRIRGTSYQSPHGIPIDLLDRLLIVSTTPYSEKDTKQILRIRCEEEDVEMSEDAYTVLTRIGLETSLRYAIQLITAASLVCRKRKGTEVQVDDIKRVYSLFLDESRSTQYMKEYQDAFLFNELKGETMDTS
UniProt Q02248: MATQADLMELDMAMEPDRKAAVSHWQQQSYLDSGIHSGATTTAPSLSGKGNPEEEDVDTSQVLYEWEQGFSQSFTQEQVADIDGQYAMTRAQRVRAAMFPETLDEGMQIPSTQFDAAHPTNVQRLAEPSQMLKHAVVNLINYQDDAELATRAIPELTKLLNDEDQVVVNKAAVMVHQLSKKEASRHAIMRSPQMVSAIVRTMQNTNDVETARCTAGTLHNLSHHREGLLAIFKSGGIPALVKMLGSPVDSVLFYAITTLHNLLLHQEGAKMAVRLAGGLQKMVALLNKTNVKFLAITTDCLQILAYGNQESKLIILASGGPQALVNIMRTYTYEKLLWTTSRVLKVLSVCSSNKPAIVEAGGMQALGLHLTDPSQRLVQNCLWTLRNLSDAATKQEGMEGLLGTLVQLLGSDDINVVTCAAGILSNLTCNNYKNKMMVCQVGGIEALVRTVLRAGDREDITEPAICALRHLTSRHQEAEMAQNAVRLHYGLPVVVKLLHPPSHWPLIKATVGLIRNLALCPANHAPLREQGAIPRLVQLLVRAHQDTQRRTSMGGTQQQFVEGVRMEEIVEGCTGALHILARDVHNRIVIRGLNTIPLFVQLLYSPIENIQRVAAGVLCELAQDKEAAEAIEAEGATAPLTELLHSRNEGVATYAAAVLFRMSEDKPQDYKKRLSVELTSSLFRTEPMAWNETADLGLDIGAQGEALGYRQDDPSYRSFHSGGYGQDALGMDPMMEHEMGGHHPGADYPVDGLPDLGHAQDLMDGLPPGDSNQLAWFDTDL
UniProt Q16665: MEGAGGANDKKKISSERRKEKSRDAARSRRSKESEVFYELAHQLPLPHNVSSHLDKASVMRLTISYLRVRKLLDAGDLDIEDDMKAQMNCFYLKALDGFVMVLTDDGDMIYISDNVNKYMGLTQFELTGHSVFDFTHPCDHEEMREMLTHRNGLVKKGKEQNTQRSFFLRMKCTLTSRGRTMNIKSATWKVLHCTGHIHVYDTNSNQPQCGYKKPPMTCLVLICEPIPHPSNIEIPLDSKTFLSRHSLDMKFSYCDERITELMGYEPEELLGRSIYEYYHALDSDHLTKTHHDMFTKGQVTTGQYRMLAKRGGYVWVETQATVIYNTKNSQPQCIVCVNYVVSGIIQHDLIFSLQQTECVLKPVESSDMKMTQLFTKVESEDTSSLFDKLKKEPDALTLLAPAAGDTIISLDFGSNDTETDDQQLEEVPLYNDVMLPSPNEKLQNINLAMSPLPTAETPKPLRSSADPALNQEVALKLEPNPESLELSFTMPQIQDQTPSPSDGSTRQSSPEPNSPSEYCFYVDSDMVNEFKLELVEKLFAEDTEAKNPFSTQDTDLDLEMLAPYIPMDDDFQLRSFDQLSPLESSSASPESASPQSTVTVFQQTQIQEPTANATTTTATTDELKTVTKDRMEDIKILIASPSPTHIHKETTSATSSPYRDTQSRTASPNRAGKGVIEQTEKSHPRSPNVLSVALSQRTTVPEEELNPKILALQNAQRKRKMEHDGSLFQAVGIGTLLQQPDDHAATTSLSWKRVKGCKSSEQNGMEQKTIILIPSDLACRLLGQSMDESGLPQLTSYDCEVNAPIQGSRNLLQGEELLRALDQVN
UniProt Q9WTM5: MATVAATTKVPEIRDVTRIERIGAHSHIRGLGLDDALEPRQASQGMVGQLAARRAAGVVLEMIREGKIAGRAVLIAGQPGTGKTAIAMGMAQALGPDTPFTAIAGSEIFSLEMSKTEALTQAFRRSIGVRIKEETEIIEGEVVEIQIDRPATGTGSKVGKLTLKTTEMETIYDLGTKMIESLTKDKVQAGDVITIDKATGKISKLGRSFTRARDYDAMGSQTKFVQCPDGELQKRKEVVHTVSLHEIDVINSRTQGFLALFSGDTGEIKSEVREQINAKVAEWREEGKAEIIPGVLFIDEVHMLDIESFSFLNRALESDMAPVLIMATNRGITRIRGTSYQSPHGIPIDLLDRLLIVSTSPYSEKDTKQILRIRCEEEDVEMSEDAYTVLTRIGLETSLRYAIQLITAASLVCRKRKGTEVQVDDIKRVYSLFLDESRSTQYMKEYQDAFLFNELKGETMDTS
UniProt P35222: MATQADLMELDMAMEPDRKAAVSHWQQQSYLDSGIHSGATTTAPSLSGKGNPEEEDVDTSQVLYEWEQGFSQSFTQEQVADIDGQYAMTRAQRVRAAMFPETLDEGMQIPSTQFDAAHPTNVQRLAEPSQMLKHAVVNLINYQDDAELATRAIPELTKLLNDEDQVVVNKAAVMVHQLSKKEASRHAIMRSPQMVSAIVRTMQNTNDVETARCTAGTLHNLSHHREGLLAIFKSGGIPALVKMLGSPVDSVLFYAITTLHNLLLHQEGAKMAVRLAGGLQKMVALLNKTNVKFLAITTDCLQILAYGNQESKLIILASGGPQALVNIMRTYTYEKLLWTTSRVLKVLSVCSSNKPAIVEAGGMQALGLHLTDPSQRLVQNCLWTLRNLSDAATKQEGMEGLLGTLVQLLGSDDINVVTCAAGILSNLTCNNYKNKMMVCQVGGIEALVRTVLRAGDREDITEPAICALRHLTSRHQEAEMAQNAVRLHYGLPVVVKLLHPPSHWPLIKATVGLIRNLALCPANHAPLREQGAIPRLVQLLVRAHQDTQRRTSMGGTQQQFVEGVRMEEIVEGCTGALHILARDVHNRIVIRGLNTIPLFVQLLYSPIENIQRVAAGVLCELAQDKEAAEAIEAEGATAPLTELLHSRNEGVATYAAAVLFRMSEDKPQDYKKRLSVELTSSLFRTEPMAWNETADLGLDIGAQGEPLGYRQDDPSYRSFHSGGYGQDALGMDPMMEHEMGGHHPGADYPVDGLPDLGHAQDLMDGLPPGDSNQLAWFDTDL

Experiments:
[1] = molecular target: RUVBL2 (human (endogenous in A549)) (UniProt Q9Y230); assay: co-IP
[2] = molecular target: β-catenin (mouse, in tumor-propagating cells) (mouse (endogenous in KP tumor-propagating cells)) (UniProt Q02248); assay: proximity ligation

binding [1] | binding [2] | Substance
binds | – | HIF1-α (from UniProt Q16665 1-826)
– | binds | RUVBL2 (mouse, in tumor-propagating cells) (from UniProt Q9WTM5 1-463)
binds | – | β-catenin (from UniProt P35222 1-781)
